Results: patent US20250282831A1, “NOVEL PROTEIN AND NUCLEIC ACID SEQUENCES FOR COVID-19 VACCINES” (Dompe' Farmaceutici SPA, priority 2021, published 2025)
At least one structure is not confirmed: it was looked up by name or label, or the drawing left a doubt.

Key:
[1] = tested on: MCF-7 breast cancer cells; experiment: BrdU proliferation assay in MCF-7 breast cancer cell line; format: cell-based; settings: 24 hours
THP-1 = experiment: Proteome profile (cytokine array) of conditioned media from differentiated THP-1 cells; format: cell-based, Human; settings: THP-1 differentiated with PMA/LPS; 24 h

C[C@]12CC[C@@H]3c4ccc(O)cc4CC[C@H]3[C@@H]1CC[C@@H]2O [Estradiol]
cell proliferation (in words) [1]: substantially increase the proliferation | IL-8 level (in words) (THP-1): up-regulated | Osteopontin (OPN) level (in words) (THP-1): upregulated | chitinase-3 like-protein-1 (CHI3L1) level (in words) (THP-1): up-regulated
